Results are given in words; binding and its absence hold for the method and conditions named.

What all share (assay): SEC; analytical gel filtration, Superdex 75 10/300 GL, 10 mM Tris-HCl pH 8.5, 100 mM NaCl, 1 mM DTT; calibrated with BSA (66 kDa) and rabbit IgG (150 kDa); both purified
In general terms: In gel filtration, larger molecules generally elute earlier.

Experiment [1] has as its target MaoC L191D (Phytophthora capsici (SD33)) (UniProt E3T2G3).
In experiment [2] the target is MaoC M27E (Phytophthora capsici (SD33)) (UniProt E3T2G3).
The target in experiment [3] is MaoC R23D (Phytophthora capsici (SD33)) (UniProt E3T2G3).

On to “MaoC L191D (from UniProt E3T2G3 1-298) (enzyme)”, for which the binding result in experiment [1] is “no binding”.
Turning to “MaoC M27E (from UniProt E3T2G3 1-298) (enzyme)”, the binding result in experiment [2] was “no binding”.
Turning to “MaoC R23D (from UniProt E3T2G3 1-298) (enzyme)”, the binding entry in experiment [3] is recorded as “no binding”.

The record behind these values is publication PMC3823801, “Structure Reveals Regulatory Mechanisms of a MaoC-Like Hydratase from Phytophthora capsici Involved in Biosynthesis of Polyhydroxyalkanoates (PHAs)” (PLoS ONE, 2013).
